The source of these data is article PMC12789522.

In the test the target is T1, Sas3 (residues 105-831), catalytic subunit of the NuA3 complex (S. cerevisiae) (UniProt P34218).
T1 sequence: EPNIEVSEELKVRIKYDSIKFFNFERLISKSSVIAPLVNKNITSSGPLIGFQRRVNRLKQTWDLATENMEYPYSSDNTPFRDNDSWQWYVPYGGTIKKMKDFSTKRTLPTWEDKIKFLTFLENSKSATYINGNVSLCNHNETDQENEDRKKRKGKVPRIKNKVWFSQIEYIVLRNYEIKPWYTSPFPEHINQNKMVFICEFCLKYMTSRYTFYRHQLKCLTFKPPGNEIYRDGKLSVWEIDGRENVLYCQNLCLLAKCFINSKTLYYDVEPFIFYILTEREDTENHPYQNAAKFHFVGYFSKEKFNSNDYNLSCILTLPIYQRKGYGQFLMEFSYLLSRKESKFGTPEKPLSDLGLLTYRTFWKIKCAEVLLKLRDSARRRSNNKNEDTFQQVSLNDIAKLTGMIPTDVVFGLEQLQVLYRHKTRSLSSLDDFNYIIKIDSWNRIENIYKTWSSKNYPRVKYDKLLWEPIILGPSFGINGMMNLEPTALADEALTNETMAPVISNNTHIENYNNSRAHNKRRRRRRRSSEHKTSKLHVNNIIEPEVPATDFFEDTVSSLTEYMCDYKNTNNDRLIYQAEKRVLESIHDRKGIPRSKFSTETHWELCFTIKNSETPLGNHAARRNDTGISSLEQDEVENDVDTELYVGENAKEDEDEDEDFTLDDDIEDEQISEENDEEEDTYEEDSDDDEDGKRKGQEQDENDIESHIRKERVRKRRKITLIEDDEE
The test can be described thus: co-purification (anti-FLAG affinity, then size-exclusion chromatography); six subunits co-expressed in High Five cells; lysate on anti-FLAG G1 resin (Sas3-FLAG), eluted with FLAG peptide, Superose 6 Increase; SDS-PAGE of the purified complex. On the technique in general: Size exclusion chromatography separates by hydrodynamic size, large species first.

Results are given in words; binding and its absence hold for the method and conditions named. Some binding calls cover weakened binding; strength is not graded here.

B1: Pdp3, subunit of the NuA3 complex (protein, UniProt Q06188 1-304)
chain: MTKDIRTGDLVLCKVGSFPPWPAVVFPQRLLRNDVYRKRKSNCVAVCFFNDPTYYWEQPSRLKELDQDSIHNFILEHSKNANQRELVNAYKEAKNFDDFNVFLQEKFEEENRLSDLKAFEKSEGSKIVAGEDPFVGRTKVVNKRKKNSISIKEDPEDNQKSNEEESKPNIKPSKKKRPTANSGGKSNSGNKKKVKLDYSRRVEISQLFRRRIQRNLIQRETPPTEHEIKETHELLNRIYENSDTKRPFFDLKALRESKLHKLLKAIVNDPDLGEFHPLCKEILLSWADLITELKKEKLQALPTP
In the case of B1, the binding entry is “binds”.
